Reference: the supplement of paper PMC10849652
The list shows a part of the results. Residues, ends and D or L forms follow the SMILES beside them. *: point of attachment. Cbz = O=C(OCc1ccccc1)*

The chains behind the UniProt entries cited, without tags or fusion partners. Where a name states a change or a piece, a line headed by the entry shows the natural chain unless it says otherwise.
UniProt Q9BTV7: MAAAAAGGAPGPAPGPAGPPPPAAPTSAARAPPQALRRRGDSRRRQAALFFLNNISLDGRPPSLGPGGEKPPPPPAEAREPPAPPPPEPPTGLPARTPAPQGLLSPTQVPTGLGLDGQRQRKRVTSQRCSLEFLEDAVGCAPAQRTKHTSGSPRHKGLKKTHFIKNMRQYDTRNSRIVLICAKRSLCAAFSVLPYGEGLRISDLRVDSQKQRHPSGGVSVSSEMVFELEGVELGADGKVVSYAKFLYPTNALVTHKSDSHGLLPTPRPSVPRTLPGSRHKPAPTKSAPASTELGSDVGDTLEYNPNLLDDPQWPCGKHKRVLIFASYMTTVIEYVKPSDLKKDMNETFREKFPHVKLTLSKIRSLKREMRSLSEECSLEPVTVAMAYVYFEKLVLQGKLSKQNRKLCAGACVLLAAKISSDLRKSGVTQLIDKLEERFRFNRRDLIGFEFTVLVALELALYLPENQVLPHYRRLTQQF
UniProt Q9BV19: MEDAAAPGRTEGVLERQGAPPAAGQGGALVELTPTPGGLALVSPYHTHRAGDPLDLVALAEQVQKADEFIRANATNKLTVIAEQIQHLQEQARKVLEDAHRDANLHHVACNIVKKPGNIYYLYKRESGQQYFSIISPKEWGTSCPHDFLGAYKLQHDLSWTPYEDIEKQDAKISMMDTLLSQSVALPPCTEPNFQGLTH
UniProt Q96MD7: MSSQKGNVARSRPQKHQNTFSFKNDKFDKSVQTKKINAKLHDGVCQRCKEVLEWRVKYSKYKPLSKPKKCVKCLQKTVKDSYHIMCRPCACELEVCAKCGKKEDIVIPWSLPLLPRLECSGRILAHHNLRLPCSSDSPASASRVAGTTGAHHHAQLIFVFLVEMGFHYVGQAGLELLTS
UniProt P43251: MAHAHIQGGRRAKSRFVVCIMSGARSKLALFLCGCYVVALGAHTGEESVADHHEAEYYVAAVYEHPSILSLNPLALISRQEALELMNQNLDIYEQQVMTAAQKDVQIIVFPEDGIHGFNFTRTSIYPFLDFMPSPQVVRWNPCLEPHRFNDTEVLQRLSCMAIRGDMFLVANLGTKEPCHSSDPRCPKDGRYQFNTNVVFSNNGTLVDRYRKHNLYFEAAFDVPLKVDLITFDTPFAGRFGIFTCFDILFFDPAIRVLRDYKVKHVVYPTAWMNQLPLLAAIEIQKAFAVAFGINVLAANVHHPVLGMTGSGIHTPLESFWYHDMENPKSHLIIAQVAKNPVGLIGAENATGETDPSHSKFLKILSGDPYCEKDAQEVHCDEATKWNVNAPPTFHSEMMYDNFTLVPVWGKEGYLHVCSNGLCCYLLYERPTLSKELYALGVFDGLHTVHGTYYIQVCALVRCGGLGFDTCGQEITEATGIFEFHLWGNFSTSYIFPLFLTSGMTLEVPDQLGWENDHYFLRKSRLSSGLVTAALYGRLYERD
UniProt Q9H257: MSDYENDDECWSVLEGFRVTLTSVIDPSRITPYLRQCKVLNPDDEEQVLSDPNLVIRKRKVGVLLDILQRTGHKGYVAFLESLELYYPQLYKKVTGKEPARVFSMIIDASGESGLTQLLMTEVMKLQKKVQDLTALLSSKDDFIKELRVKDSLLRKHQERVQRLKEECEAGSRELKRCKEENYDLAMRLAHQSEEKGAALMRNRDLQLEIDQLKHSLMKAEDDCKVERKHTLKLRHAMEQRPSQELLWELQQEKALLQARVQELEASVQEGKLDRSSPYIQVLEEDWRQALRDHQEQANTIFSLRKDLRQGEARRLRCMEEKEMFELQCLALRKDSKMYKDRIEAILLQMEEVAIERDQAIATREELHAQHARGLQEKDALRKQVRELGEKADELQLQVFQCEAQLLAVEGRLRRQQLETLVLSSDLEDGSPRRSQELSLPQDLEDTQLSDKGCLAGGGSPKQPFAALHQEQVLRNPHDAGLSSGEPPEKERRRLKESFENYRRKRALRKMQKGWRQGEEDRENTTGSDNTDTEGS
UniProt Q8TCD1: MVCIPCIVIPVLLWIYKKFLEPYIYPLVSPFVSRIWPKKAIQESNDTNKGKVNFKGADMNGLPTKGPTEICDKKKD
UniProt Q8WUQ7: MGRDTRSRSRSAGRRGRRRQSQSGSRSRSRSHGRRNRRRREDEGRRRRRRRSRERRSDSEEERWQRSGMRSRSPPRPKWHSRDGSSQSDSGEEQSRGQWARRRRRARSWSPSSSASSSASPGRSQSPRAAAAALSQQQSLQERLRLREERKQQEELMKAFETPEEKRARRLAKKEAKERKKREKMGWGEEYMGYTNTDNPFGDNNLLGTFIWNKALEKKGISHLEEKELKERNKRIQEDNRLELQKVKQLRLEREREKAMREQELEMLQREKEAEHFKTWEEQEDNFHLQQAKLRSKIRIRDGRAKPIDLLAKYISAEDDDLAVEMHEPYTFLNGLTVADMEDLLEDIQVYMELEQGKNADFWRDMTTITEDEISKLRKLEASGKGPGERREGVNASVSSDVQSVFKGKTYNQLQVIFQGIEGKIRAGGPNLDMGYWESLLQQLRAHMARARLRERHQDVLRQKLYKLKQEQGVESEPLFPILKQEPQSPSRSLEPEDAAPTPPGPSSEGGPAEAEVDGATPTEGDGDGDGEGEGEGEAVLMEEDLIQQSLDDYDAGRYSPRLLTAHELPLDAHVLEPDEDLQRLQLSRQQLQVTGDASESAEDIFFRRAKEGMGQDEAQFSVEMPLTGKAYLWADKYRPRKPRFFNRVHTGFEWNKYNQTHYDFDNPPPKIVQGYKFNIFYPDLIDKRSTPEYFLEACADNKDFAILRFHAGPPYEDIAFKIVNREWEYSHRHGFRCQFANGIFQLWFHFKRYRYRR
UniProt Q9BSU1: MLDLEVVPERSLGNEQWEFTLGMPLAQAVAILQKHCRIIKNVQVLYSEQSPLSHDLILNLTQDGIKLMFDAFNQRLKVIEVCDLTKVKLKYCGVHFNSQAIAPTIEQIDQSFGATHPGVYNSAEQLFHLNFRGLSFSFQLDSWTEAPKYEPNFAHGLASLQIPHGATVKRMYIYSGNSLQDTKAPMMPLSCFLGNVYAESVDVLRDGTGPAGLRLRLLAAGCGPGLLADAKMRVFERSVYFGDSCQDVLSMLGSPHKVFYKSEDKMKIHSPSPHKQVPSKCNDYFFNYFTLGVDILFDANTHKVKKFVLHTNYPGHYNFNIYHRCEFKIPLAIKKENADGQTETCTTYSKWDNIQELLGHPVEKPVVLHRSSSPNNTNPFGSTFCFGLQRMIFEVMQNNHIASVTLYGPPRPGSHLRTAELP
UniProt Q7Z7L8: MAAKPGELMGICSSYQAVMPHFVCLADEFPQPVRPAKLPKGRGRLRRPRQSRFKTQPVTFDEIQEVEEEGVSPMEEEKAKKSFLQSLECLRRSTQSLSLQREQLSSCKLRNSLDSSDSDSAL
UniProt Q5BKX5: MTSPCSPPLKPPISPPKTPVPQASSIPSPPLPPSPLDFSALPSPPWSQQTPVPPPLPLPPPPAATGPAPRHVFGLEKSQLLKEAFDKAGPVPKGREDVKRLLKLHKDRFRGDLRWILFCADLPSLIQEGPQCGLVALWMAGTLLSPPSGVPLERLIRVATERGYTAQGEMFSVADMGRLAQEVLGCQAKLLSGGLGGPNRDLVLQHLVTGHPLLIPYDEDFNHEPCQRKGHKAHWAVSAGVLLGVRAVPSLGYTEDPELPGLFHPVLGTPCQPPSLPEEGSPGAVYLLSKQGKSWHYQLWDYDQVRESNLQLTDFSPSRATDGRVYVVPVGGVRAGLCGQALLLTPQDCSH
UniProt Q7Z4R8: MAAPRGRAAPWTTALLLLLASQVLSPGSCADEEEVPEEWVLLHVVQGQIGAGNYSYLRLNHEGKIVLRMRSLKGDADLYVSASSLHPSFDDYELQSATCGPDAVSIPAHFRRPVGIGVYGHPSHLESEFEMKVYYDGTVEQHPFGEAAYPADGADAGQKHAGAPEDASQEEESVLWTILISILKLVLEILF
UniProt Q96N11, whole entry, looked up: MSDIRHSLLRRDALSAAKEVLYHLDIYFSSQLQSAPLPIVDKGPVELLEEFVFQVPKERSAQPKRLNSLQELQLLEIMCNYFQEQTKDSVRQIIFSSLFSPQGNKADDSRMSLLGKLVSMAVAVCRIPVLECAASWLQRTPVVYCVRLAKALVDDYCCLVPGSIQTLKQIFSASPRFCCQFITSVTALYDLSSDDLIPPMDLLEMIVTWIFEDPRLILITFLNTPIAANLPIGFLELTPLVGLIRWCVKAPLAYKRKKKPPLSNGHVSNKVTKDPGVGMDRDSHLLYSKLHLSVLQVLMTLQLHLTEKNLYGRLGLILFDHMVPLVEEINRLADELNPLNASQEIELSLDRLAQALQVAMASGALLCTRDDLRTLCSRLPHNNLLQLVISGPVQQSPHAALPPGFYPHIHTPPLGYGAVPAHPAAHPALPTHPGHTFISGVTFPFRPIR
UniProt Q7KYR7: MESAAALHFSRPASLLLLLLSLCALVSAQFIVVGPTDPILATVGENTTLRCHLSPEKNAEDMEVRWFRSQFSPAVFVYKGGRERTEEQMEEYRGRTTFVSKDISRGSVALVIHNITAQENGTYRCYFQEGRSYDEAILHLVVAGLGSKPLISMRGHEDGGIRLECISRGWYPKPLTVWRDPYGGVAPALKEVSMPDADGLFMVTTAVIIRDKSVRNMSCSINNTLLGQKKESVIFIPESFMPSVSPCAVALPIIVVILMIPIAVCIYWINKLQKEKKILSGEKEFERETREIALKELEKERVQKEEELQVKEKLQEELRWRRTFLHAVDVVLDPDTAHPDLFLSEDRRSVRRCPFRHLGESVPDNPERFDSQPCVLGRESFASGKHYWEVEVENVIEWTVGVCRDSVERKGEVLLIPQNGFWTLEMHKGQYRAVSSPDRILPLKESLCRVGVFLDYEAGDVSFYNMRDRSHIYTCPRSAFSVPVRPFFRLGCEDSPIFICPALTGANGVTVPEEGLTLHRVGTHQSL
UniProt Q96L12: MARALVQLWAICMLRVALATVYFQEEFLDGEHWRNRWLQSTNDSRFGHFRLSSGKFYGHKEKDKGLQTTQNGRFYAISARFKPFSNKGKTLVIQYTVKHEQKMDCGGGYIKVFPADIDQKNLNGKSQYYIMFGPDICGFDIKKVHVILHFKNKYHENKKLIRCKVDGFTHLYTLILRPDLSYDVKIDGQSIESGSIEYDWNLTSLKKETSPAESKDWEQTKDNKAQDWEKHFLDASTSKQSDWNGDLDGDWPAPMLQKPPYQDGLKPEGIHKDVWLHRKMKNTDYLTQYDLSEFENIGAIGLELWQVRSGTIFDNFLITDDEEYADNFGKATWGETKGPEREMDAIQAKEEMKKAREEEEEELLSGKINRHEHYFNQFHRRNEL
UniProt P04003: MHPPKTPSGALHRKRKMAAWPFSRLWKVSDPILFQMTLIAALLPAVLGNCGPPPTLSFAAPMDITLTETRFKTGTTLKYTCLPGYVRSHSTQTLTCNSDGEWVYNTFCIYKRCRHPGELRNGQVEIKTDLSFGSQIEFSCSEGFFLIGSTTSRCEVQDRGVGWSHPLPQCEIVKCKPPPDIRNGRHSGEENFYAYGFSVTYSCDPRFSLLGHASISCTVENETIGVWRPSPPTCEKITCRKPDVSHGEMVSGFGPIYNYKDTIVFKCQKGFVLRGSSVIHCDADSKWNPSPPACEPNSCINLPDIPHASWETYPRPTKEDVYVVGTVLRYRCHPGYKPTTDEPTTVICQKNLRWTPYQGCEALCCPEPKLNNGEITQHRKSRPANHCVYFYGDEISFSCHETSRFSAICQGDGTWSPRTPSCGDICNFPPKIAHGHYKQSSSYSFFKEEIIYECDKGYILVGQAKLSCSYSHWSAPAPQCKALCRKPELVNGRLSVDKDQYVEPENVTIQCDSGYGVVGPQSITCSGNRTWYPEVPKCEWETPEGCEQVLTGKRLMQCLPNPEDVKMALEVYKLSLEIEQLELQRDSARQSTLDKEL
UniProt Q96KE9: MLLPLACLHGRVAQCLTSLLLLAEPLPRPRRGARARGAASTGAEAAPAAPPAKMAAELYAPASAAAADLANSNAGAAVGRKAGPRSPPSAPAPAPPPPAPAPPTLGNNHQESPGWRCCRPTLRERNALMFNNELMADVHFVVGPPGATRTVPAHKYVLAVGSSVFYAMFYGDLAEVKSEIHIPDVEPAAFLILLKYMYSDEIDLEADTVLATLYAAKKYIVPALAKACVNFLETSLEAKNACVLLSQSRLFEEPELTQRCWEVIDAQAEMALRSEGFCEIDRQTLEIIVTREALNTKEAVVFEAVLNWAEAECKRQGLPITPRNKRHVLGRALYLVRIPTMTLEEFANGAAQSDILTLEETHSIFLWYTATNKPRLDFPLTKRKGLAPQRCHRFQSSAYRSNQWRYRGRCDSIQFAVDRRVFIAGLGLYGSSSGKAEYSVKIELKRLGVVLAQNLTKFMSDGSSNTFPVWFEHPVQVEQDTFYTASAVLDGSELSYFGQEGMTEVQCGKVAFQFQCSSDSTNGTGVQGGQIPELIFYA

Columns and labels:
Experiment in all cases: log2 fold change, soluble protein after heating vs DMSO (PISA); higher = thermal stabilisation; K562 cells, 10 uM, 30 min; active = over 0.2 and 3.5 SD of the protein, either way, in both replicates (recomputed)
IRAK-1-4 Inhibitor I = compound: C1COCCN1CCN2C3=CC=CC=C3N=C2NC(=O)C4=CC(=CC=C4)[N+](=O)[O-] [IRAK-1-4 Inhibitor I]
Method in brief: (§1)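 Aliquots of K562 cells (2×10^6 cells/mL) treated with 10 μM compound for 30 min were heated for 3 min over 48°C-58°C. After pooling and extraction in PBS with 0.5% NP-40 at 4°C, soluble protein from a 21,000xg, 90 min spin was quantified by TMTpro 16plex LC-MS/MS with channel sums equalised. Thermal stability is expressed against control samples, from duplicates, as a log2 fold change.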

pinometostat = compound: CC(C)N(C[C@H]1O[C@@H](n2cnc3c(N)ncnc32)[C@H](O)[C@@H]1O)[C@H]1C[C@@H](CCc2nc3cc(C(C)(C)C)ccc3[nH]2)C1 [pinometostat]
Method in brief: as §1

[1] = compound: CC1=NC(=CC=C1)C2=C(N=C(N2)C(C)(C)C)C3=CC4=NC=CN=C4C=C3
Method in brief: as §1

[2] = compound: CCCc1cc(C)[nH]c(=O)c1CNC(=O)c1cc(-c2ccnc(N3CCN(C)CC3)c2)cc2c1cnn2C(C)C
Method in brief: as §1

ibrutinib = compound: C=CC(=O)N1CCC[C@@H](n2nc(-c3ccc(Oc4ccccc4)cc3)c3c(N)ncnc32)C1 [ibrutinib]
Method in brief: as §1

[3] = compound: CC(=O)c1cnc2ccc(-c3cc(Cl)c(O)c(Cl)c3)nc2c1N[C@H]1CC[C@H](CN(C)C)CC1
Method in brief: as §1

ralimetinib = compound: CC(C)(C)Cn1c(N)nc2ccc(-c3[nH]c(C(C)(C)C)nc3-c3ccc(F)cc3)nc21 [ralimetinib]
Method in brief: as §1

[4] = compound: CC(C)(O)CC(=O)NCCn1ccc2ncnc(Nc3ccc(Oc4cccc(C(F)(F)F)c4)c(Cl)c3)c21
Method in brief: as §1

[5] = compound: CC(C)C1=C2N=C(C=C(N2N=C1)NCC3=CC=CC=C3)NCCCCCCN
Method in brief: as §1

[6] = compound: CC(C)C[C@@H](C=O)NC(=O)[C@H](CC(C)C)NC(=O)[C@H](CC(C)C)NC(=O)OCc1ccccc1
Method in brief: as §1

[7] = compound: CC1=C(C(CC(=O)N1)C2=CC=C(C=C2)C(F)(F)F)C(=O)NC3=C(C=C4C(=C3)C=NN4)F
Method in brief: as §1

[8] = compound: CC1=C(C2=C(C=C1)C(=O)C3=CC=CC=C3N2CCCN)C
Method in brief: as §1

[9] = compound: CC1=C(C=C(C=C1)NC(=O)C2=CC(=CC=C2)C(C)(C)C#N)NC3=CC4=C(C=C3)N=CN(C4=O)C
Method in brief: as §1

[10] = compound: CC1=C(C=C(C=C1)NC(=O)C2=CC(=CC=C2)N(C)C)NC(=O)C3=CC=C(C=C3)O
Method in brief: as §1

[11] = compound: CC1=CC=C(C=C1)SC2=C3C=C(SC3=CN=C2)C(=O)N
Method in brief: as §1

Nexturastat A = compound: CCCCN(Cc1ccc(C(=O)NO)cc1)C(=O)Nc1ccccc1 [Nexturastat A]
Method in brief: as §1

vemurafenib = compound: CCCS(=O)(=O)Nc1ccc(F)c(C(=O)c2c[nH]c3ncc(-c4ccc(Cl)cc4)cc23)c1F [vemurafenib]
Method in brief: as §1

[12] = compound: CCCS(=O)(=O)Nc1ccc(F)c(C(=O)c2c[nH]c3ncc(Cl)cc23)c1F
Method in brief: as §1

givinostat = compound: CCN(CC)Cc1ccc2cc(COC(=O)Nc3ccc(C(=O)NO)cc3)ccc2c1 [givinostat]
Method in brief: as §1

barasertib = compound: CCN(CCCOc1ccc2c(Nc3cc(CC(=O)Nc4cccc(F)c4)[nH]n3)ncnc2c1)CCOP(=O)(O)O [barasertib]
Method in brief: as §1

Measured: log2 fold change

CABLES2 (UniProt Q9BTV7)
inactive: IRAK-1-4 Inhibitor I -0.034 | pinometostat 0.081 | [1] 0.065 | [2] 0.155

C1orf50 (UniProt Q9BV19)
inactive: ibrutinib -0.229 | [3] -0.113 | ralimetinib 0.016 | [4] -0.086 | [5] 0.063 | [6] 0.024 | [7] 0.054 | [8] 0.236 | [9] -0.052 | [10] -0.112 | [11] 0.007 | Nexturastat A 0.009 | vemurafenib 0.126 | [12] -0.039 | [2] 0.015 | givinostat -0.023 | barasertib -0.078

CARD11 (UniProt Q9BXL7)
inactive: IRAK-1-4 Inhibitor I -0.033 | [3] 0.048 | [4] -0.054 | pinometostat -0.093 | [9] -0.062 | [11] 0.037 | [1] -0.042 | Nexturastat A 0.116 | [12] 0.007

C9orf85 isoform 1 (UniProt Q96MD7)
inactive: IRAK-1-4 Inhibitor I -0.073 | [3] -0.089 | [4] -0.113 | [5] 0.163 | pinometostat 0.194 | [7] 0.134 | [8] 0.037 | [9] 0.032 | [11] 0.123 | [1] -0.11 | Nexturastat A -0.06 | vemurafenib 0.04 | [12] 0.041 | [2] 0.061 | givinostat 0.029

BTD isoform 3 (UniProt P43251)
inactive: IRAK-1-4 Inhibitor I -0.023 | ibrutinib 0.054 | ralimetinib -0.009 | [4] 0 | [5] 0.046 | [6] 0.02 | pinometostat -0.028 | [7] -0.071 | [8] -0.049 | [9] 0.02 | [10] 0.071 | [11] -0.04 | [1] -0.02 | Nexturastat A 0.005 | vemurafenib -0.085 | [12] -0.052 | [2] -0.07 | givinostat -0.061 | barasertib 0.01

CARD9 (UniProt Q9H257)
inactive: IRAK-1-4 Inhibitor I -0.181 | [3] -0.255 | ralimetinib 0.15 | [5] 0.071 | [6] 0.178 | pinometostat 0.202 | [10] -0.15 | [1] 0.052 | givinostat -0.106

C18orf32 (UniProt Q8TCD1)
inactive: ibrutinib -0.01 | [3] -0.041 | ralimetinib -0.194 | [4] 0.165 | [5] 0.071 | [6] -0.132 | [7] 0.018 | [8] 0.151 | [9] 0.098 | [10] 0.001 | [11] -0.004 | Nexturastat A -0.066 | vemurafenib 0.057 | [12] -0.071 | [2] -0.038 | givinostat -0.014 | barasertib 0.02

CACTIN isoform 2 (UniProt Q8WUQ7)
inactive: IRAK-1-4 Inhibitor I -0.088 | ibrutinib -0.021 | [3] -0.311 | [4] -0.032 | [5] -0.123 | pinometostat 0.038 | [7] -0.171 | [8] 0.281 | [9] 0.076 | [11] -0.008 | [1] 0.058 | Nexturastat A 0.103 | vemurafenib -0.011 | [12] -0.035 | [2] -0.051 | givinostat 0.07 | barasertib 0.016

C16orf70 (UniProt Q9BSU1)
inactive: IRAK-1-4 Inhibitor I 0.145 | [3] -0.154 | [4] -0.151 | pinometostat -0.012 | [9] -0.197 | [11] -0.01 | [1] -0.103 | Nexturastat A -0.054 | [12] -0.03

C11orf96 (UniProt Q7Z7L8)
inactive: IRAK-1-4 Inhibitor I -0.122 | ralimetinib -0.044 | [4] -0.201 | [6] 0.281 | pinometostat 0.092 | [10] -0.171 | [11] 0.067 | [1] -0.236 | Nexturastat A 0.071 | vemurafenib 0.146 | [12] -0.03

CAP1 isoform 2 (UniProt Q01518)
inactive: IRAK-1-4 Inhibitor I 0.048 | ibrutinib 0 | pinometostat -0.139 | [1] 0.009 | [2] 0.175 | barasertib 0.017

Copied from the results shown (two entries):
C1orf50 (UniProt Q9BV19)
inactive: ibrutinib -0.229 | [3] -0.113 | ralimetinib 0.016 | [4] -0.086 | [5] 0.063 | [6] 0.024 | [7] 0.054 | [8] 0.236 | [9] -0.052 | [10] -0.112 | [11] 0.007 | Nexturastat A 0.009 | vemurafenib 0.126 | [12] -0.039 | [2] 0.015 | givinostat -0.023 | barasertib -0.078

CARD11 (UniProt Q9BXL7)
inactive: IRAK-1-4 Inhibitor I -0.033 | [3] 0.048 | [4] -0.054 | pinometostat -0.093 | [9] -0.062 | [11] 0.037 | [1] -0.042 | Nexturastat A 0.116 | [12] 0.007

(cont.)

C19orf54 (UniProt Q5BKX5)
inactive: IRAK-1-4 Inhibitor I 0.008 | [3] 0.045 | ralimetinib 0.019 | [4] -0.003 | [5] -0.022 | [6] 0.08 | pinometostat -0.016 | [8] -0.054 | [9] 0.096 | [10] -0.053 | [11] 0.127 | [1] -0.104 | Nexturastat A -0.025 | vemurafenib -0.118 | [12] 0.077 | givinostat 0.044

C12orf73 (UniProt Q69YU5)
inactive: IRAK-1-4 Inhibitor I 0.008 | ibrutinib 0.035 | ralimetinib -0.067 | [4] -0.2 | [5] 0.064 | [6] -0.051 | pinometostat -0.034 | [7] 0.026 | [8] 0.039 | [9] -0.066 | [10] -0.005 | [11] 0.065 | [1] 0.002 | Nexturastat A -0.266 | vemurafenib -0.001 | [12] -0.031 | [2] -0.034 | givinostat -0.02 | barasertib 0.033

C6orf120 (UniProt Q7Z4R8)
inactive: IRAK-1-4 Inhibitor I 0.116 | ibrutinib -0.003 | ralimetinib 0.015 | [5] -0.19 | [6] -0.003 | pinometostat -0.023 | [8] 0.002 | [9] -0.054 | [10] 0.045 | [11] 0.018 | [1] -0.094 | vemurafenib -0.035 | [12] 0.069 | givinostat -0.011 | barasertib 0.017

CALD1 (UniProt Q05682)
inactive: IRAK-1-4 Inhibitor I -0.044 | ralimetinib -0.051 | [4] -0.002 | [5] -0.41 | [6] -0.183 | pinometostat 0.201 | [9] -0.02 | [10] -0.054 | [11] 0.008 | [1] 0.081 | Nexturastat A 0.039 | [12] 0.086 | givinostat 0.073

C7orf26 (UniProt Q96N11)
inactive: IRAK-1-4 Inhibitor I 0.031 | ibrutinib 0.266 | ralimetinib -0.163 | [4] -0.151 | [5] -0.071 | [6] -0.03 | pinometostat 0.019 | [7] 0.13 | [9] -0.041 | [10] -0.028 | [1] -0.078 | Nexturastat A 0.054 | vemurafenib 0.146 | givinostat -0.048 | barasertib -0.028

BTN2A1 (UniProt Q7KYR7)
inactive: IRAK-1-4 Inhibitor I 0.072 | ibrutinib 0.107 | ralimetinib 0.051 | [4] 0.008 | [5] 0.052 | [6] 0.026 | pinometostat 0.025 | [7] 0.051 | [8] -0.046 | [10] -0.05 | [11] -0.029 | [1] 0.003 | Nexturastat A 0.266 | vemurafenib 0.07 | [12] -0.064 | givinostat 0.039 | barasertib -0.039

CAPN1 (UniProt E9PLX0)
inactive: IRAK-1-4 Inhibitor I 0.126 | ibrutinib 0.071 | [5] 0.068 | pinometostat -0.081 | [9] 0.21 | [1] 0.008 | givinostat -0.064 | barasertib 0.143

CALR3 (UniProt Q96L12)
inactive: IRAK-1-4 Inhibitor I -0.019 | pinometostat 0.052 | [1] -0.101

C4BPA (UniProt P04003)
inactive: IRAK-1-4 Inhibitor I -0.134 | ibrutinib 0.389 | [3] -0.116 | [4] 0.276 | [5] 0.49 | pinometostat 0.171 | [7] -0.312 | [8] -0.067 | [9] 0.134 | [1] -0.082 | Nexturastat A -0.124 | [2] 0.068 | givinostat -0.138 | barasertib 0.063

BTBD6 (UniProt Q96KE9)
inactive: ibrutinib 0.136 | [3] 0.145 | ralimetinib 0.201 | [4] -0.008 | [5] 0.296 | [6] 0.025 | [8] 0.005 | [9] -0.061 | [10] -0.108 | [11] 0.003 | Nexturastat A 0.531 | vemurafenib 0.002 | [12] 0.007 | [2] -0.017 | givinostat 0.358 | barasertib -0.017
